{"source": "ChEMBL document CHEMBL4316593", "about": "(Eur J Med Chem, 2019)", "assay_type_in_all_cases": "cell-based", "conditions_in_all_cases": "U-87MG ATCC", "key": {"[1]": {"assay": "Inhibition of RTK/PI3K/AKT/mTOR signaling in human U87 cells assessed as down regulation of DPYSL3 gene expression at cytotoxic IC50 measured after 48 hrs relative to control"}, "[2]": {"assay": "Inhibition of RTK/PI3K/AKT/mTOR signaling in human U87 cells assessed as down regulation of PSMB9 gene expression at cytotoxic IC50 measured after 48 hrs relative to control"}, "[3]": {"assay": "Inhibition of RTK/PI3K/AKT/mTOR signaling in human U87 cells assessed as down regulation of DSCC1 gene expression at cytotoxic IC50 measured after 48 hrs relative to control"}, "[4]": {"assay": "Inhibition of RTK/PI3K/AKT/mTOR signaling in human U87 cells assessed as down regulation of TSC22D2 gene expression at cytotoxic IC50 measured after 48 hrs relative to control"}, "[5]": {"assay": "Inhibition of RTK/PI3K/AKT/mTOR signaling in human U87 cells assessed as down regulation of TGFBR2 gene expression at cytotoxic IC50 measured after 48 hrs relative to control"}, "[6]": {"assay": "Inhibition of RTK/PI3K/AKT/mTOR signaling in human U87 cells assessed as down regulation of TRIM26 gene expression at cytotoxic IC50 measured after 48 hrs relative to control"}, "[7]": {"assay": "Inhibition of RTK/PI3K/AKT/mTOR signaling in human U87 cells assessed as down regulation of OSBPL6 gene expression at cytotoxic IC50 measured after 48 hrs relative to control"}, "[8]": {"assay": "Inhibition of RTK/PI3K/AKT/mTOR signaling in human U87 cells assessed as down regulation of RTCA gene expression at cytotoxic IC50 measured after 48 hrs relative to control"}, "[9]": {"assay": "Inhibition of RTK/PI3K/AKT/mTOR signaling in human U87 cells assessed as down regulation of ITSN2 gene expression at cytotoxic IC50 measured after 48 hrs relative to control"}, "[10]": {"assay": "Inhibition of RTK/PI3K/AKT/mTOR signaling in human U87 cells assessed as down regulation of CSTB gene expression at cytotoxic IC50 measured after 48 hrs relative to control"}, "[11]": {"assay": "Inhibition of RTK/PI3K/AKT/mTOR signaling in human U87 cells assessed as down regulation of HGS gene expression at cytotoxic IC50 measured after 48 hrs relative to control"}, "[12]": {"assay": "Inhibition of RTK/PI3K/AKT/mTOR signaling in human U87 cells assessed as up regulation of ABALON gene expression at cytotoxic IC50 measured after 48 hrs relative to control"}, "[13]": {"assay": "Inhibition of RTK/PI3K/AKT/mTOR signaling in human U87 cells assessed as up regulation of APOL6 gene expression at cytotoxic IC50 measured after 48 hrs relative to control"}, "[14]": {"assay": "Inhibition of RTK/PI3K/AKT/mTOR signaling in human U87 cells assessed as up regulation of DGKE gene expression at cytotoxic IC50 measured after 48 hrs relative to control"}, "[15]": {"assay": "Inhibition of RTK/PI3K/AKT/mTOR signaling in human U87 cells assessed as up regulation of ANXA1 gene expression at cytotoxic IC50 measured after 48 hrs relative to control"}, "[16]": {"assay": "Inhibition of RTK/PI3K/AKT/mTOR signaling in human U87 cells assessed as up regulation of RAB3IL1 gene expression at cytotoxic IC50 measured after 48 hrs relative to control"}, "[17]": {"assay": "Inhibition of RTK/PI3K/AKT/mTOR signaling in human U87 cells assessed as up regulation of GABRD gene expression at cytotoxic IC50 measured after 48 hrs relative to control"}, "[18]": {"assay": "Inhibition of RTK/PI3K/AKT/mTOR signaling in human U87 cells assessed as up regulation of adenosine A2b receptor gene expression at cytotoxic IC50 measured after 48 hrs relative to control"}, "[19]": {"assay": "Inhibition of RTK/PI3K/AKT/mTOR signaling in human U87 cells assessed as up regulation of golgin A8 family member A gene expression at cytotoxic IC50 measured after 48 hrs relative to control"}, "[20]": {"assay": "Inhibition of RTK/PI3K/AKT/mTOR signaling in human U87 cells assessed as up regulation of serum/glucocorticoid regulated kinase family member 3 gene expression at cytotoxic IC50 measured after 48 hrs relative to control"}, "[21]": {"assay": "Inhibition of RTK/PI3K/AKT/mTOR signaling in human U87 cells assessed as up regulation of thyroid hormone receptor interactor 6 gene expression at cytotoxic IC50 measured after 48 hrs relative to control"}, "[22]": {"assay": "Inhibition of RTK/PI3K/AKT/mTOR signaling in human U87 cells assessed as up regulation of heat shock protein 90 beta family member 1 gene expression at cytotoxic IC50 measured after 48 hrs relative to control"}, "[23]": {"assay": "Inhibition of RTK/PI3K/AKT/mTOR signaling in human U87 cells assessed as up regulation of protein disulfide isomerase family A member 6 gene expression at cytotoxic IC50 measured after 48 hrs relative to control"}, "[24]": {"assay": "Inhibition of RTK/PI3K/AKT/mTOR signaling in human U87 cells assessed as up regulation of DDB1 and CUL4 associated factor 6 gene expression at cytotoxic IC50 measured after 48 hrs relative to control"}, "[25]": {"assay": "Inhibition of RTK/PI3K/AKT/mTOR signaling in human U87 cells assessed as up regulation of glycogen phosphorylase B gene expression at cytotoxic IC50 measured after 48 hrs relative to control"}, "[26]": {"assay": "Inhibition of RTK/PI3K/AKT/mTOR signaling in human U87 cells assessed as up regulation of dickkopf WNT signaling pathway inhibitor 1 gene expression at cytotoxic IC50 measured after 48 hrs relative to control"}, "[27]": {"assay": "Inhibition of RTK/PI3K/AKT/mTOR signaling in human U87 cells assessed as up regulation of ribosomal protein L34 gene expression at cytotoxic IC50 measured after 48 hrs relative to control"}, "[28]": {"assay": "Inhibition of RTK/PI3K/AKT/mTOR signaling in human U87 cells assessed as up regulation of UAP1 gene expression at cytotoxic IC50 measured after 48 hrs relative to control"}, "[29]": {"assay": "Inhibition of RTK/PI3K/AKT/mTOR signaling in human U87 cells assessed as up regulation of RAP1GAP2 gene expression at cytotoxic IC50 measured after 48 hrs relative to control"}, "[30]": {"assay": "Inhibition of RTK/PI3K/AKT/mTOR signaling in human U87 cells assessed as up regulation of ACTN1 gene expression at cytotoxic IC50 measured after 48 hrs relative to control"}, "[31]": {"assay": "Inhibition of RTK/PI3K/AKT/mTOR signaling in human U87 cells assessed as up regulation of RPL7A gene expression at cytotoxic IC50 measured after 48 hrs relative to control"}, "[32]": {"assay": "Inhibition of RTK/PI3K/AKT/mTOR signaling in human U87 cells assessed as up regulation of NAP1L1 gene expression at cytotoxic IC50 measured after 48 hrs relative to control"}}, "note": "This continues a long series; more values of the same kind are listed elsewhere."}
{"compound": "CC(=O)C(=NNc1ccccc1C#N)C(C)=O", "values": [{"measurement": "log2FC", "setting": "[1]", "result": -2.76}, {"measurement": "log2FC", "setting": "[2]", "result": -1.66}, {"measurement": "log2FC", "setting": "[3]", "result": -1.56}, {"measurement": "log2FC", "setting": "[4]", "result": -1.04}, {"measurement": "log2FC", "setting": "[5]", "result": -0.893}, {"measurement": "log2FC", "setting": "[6]", "result": -0.854}, {"measurement": "log2FC", "setting": "[7]", "result": -0.841}, {"measurement": "log2FC", "setting": "[8]", "result": -0.745}, {"measurement": "log2FC", "setting": "[9]", "result": -0.721}, {"measurement": "log2FC", "setting": "[10]", "result": -0.661}, {"measurement": "log2FC", "setting": "[11]", "result": -0.609}, {"measurement": "log2FC", "setting": "[12]", "result": 2.96}, {"measurement": "log2FC", "setting": "[13]", "result": 2.83}, {"measurement": "log2FC", "setting": "[14]", "result": 2.56}, {"measurement": "log2FC", "setting": "[15]", "result": 2.41}, {"measurement": "log2FC", "setting": "[16]", "result": 1.87}, {"measurement": "log2FC", "setting": "[17]", "result": 1.61}, {"measurement": "log2FC", "setting": "[18]", "result": 1.45}, {"measurement": "log2FC", "setting": "[19]", "result": 1.39}, {"measurement": "log2FC", "setting": "[20]", "result": 1.38}, {"measurement": "log2FC", "setting": "[21]", "result": 1.31}, {"measurement": "log2FC", "setting": "[22]", "result": 1.18}, {"measurement": "log2FC", "setting": "[23]", "result": 1.12}, {"measurement": "log2FC", "setting": "[24]", "result": 0.981}, {"measurement": "log2FC", "setting": "[25]", "result": 0.835}, {"measurement": "log2FC", "setting": "[26]", "result": 0.743}, {"measurement": "log2FC", "setting": "[27]", "result": 0.704}, {"measurement": "log2FC", "setting": "[28]", "result": 0.62}, {"measurement": "log2FC", "setting": "[29]", "result": 0.523}, {"measurement": "log2FC", "setting": "[30]", "result": 0.503}, {"measurement": "log2FC", "setting": "[31]", "result": 0.493}, {"measurement": "log2FC", "setting": "[32]", "result": 0.444}]}
